# Source: the supplement of paper PMC8728848
# The list shows a part of the results.
# Key:
# Test in all cases: glycan array binding signal (z-score within array); higher = stronger binding
# Conditions in all cases: glycan notation: IUPAC condensed, linker removed
# Gal(b1-4)Glc = target: Gal(b1-4)Glc
# Outline: (§1)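 From the Consortium for Functional Glycomics database, 3228 arrays were curated, keeping only those whose protein sequence was available. Binding is given as a within-array Z-score averaged across arrays sharing a protein sequence and across linkers. Negative Z-scores can be read as non-binding.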
# Gal(b1-4)Glc6S = target: Gal(b1-4)Glc6S
# Outline: as §1
# Gal(b1-4)GlcNAc = target: Gal(b1-4)GlcNAc
# Outline: as §1
# [1] = target: Gal(b1-4)GlcNAc(a1-6)Gal(b1-4)GlcNAc
# Outline: as §1
# Gal(b1-4)GlcNAc(b1-2)Man = target: Gal(b1-4)GlcNAc(b1-2)Man
# Outline: as §1
# [2] = target: Gal(b1-4)GlcNAc(b1-2)Man(a1-3)Man(b1-4)GlcNAc(b1-4)GlcNAc
# Outline: as §1
# [3] = target: Gal(b1-4)GlcNAc(b1-2)Man(a1-3)[Gal(b1-4)GlcNAc(b1-2)Man(a1-6)]Man(b1-4)GlcNAc(b1-4)GlcNAc
# Outline: as §1
# [4] = target: Gal(b1-4)GlcNAc(b1-2)Man(a1-3)[Gal(b1-4)GlcNAc(b1-2)Man(a1-6)]Man(b1-4)GlcNAc(b1-4)[Fuc(a1-6)]GlcNAc
# Outline: as §1
# [5] = target: Gal(b1-4)GlcNAc(b1-2)Man(a1-3)[Gal(b1-4)GlcNAc(b1-2)Man(a1-6)][Gal(b1-4)GlcNAc(b1-4)]Man(b1-4)GlcNAc(b1-4)[Fuc(a1-6)]GlcNAc
# Outline: as §1
# [6] = target: Gal(b1-4)GlcNAc(b1-2)Man(a1-3)[Gal(b1-4)GlcNAc(b1-2)Man(a1-6)][GlcNAc(b1-4)]Man(b1-4)GlcNAc(b1-4)[Fuc(a1-6)]GlcNAc
# Outline: as §1
# [7] = target: Gal(b1-4)GlcNAc(b1-2)Man(a1-3)[GlcNAc(b1-2)Man(a1-6)]Man(b1-4)GlcNAc(b1-4)GlcNAc
# Outline: as §1
# [8] = target: Gal(b1-4)GlcNAc(b1-2)Man(a1-3)[GlcNAc(b1-4)][Gal(b1-4)GlcNAc(b1-2)Man(a1-6)]Man(b1-4)GlcNAc(b1-4)GlcNAc
# Outline: as §1
# [9] = target: Gal(b1-4)GlcNAc(b1-2)Man(a1-3)[Man(a1-6)]Man(b1-4)GlcNAc(b1-4)GlcNAc
# Outline: as §1
# [10] = target: Gal(b1-4)GlcNAc(b1-2)Man(a1-6)Man(b1-4)GlcNAc(b1-4)GlcNAc
# Outline: as §1
# [11] = target: Gal(b1-4)GlcNAc(b1-2)Man(a1-6)[GlcNAc(b1-2)Man(a1-3)]Man(b1-4)GlcNAc(b1-4)GlcNAc
# Outline: as §1
# [12] = target: Gal(b1-4)GlcNAc(b1-2)Man(a1-6)[Man(a1-3)]Man(b1-4)GlcNAc(b1-4)GlcNAc
# Outline: as §1
# [13] = target: Gal(b1-4)GlcNAc(b1-2)[Gal(b1-4)GlcNAc(b1-4)]Man(a1-3)[Gal(b1-4)GlcNAc(b1-2)Man(a1-6)]Man(b1-4)GlcNAc(b1-4)GlcNAc
# Outline: as §1
# [14] = target: Gal(b1-4)GlcNAc(b1-2)[Gal(b1-4)GlcNAc(b1-4)]Man(a1-3)[Gal(b1-4)GlcNAc(b1-2)[Gal(b1-4)GlcNAc(b1-6)]Man(a1-6)]Man(b1-4)GlcNAc(b1-4)GlcNAc
# Outline: as §1
# [15] = target: Gal(b1-4)GlcNAc(b1-2)[Gal(b1-4)GlcNAc(b1-4)]Man(a1-3)[GlcNAc(b1-4)][Gal(b1-4)GlcNAc(b1-2)Man(a1-6)]Man(b1-4)GlcNAc(b1-4)GlcNAc
# Outline: as §1
# [16] = target: Gal(b1-4)GlcNAc(b1-2)[Gal(b1-4)GlcNAc(b1-4)]Man(a1-3)[GlcNAc(b1-4)][Gal(b1-4)GlcNAc(b1-2)[Gal(b1-4)GlcNAc(b1-6)]Man(a1-6)]Man(b1-4)GlcNAc(b1-4)GlcNAc
# Outline: as §1
# [17] = target: Gal(b1-4)GlcNAc(b1-2)[Gal(b1-4)GlcNAc(b1-6)]Man(a1-6)[Gal(b1-4)GlcNAc(b1-2)Man(a1-3)]Man(b1-4)GlcNAc(b1-4)GlcNAc
# Outline: as §1
# [18] = target: Gal(b1-4)GlcNAc(b1-2)[Gal(b1-4)GlcNAc(b1-6)]Man(a1-6)[Gal(b1-4)GlcNAc(b1-2)Man(a1-3)]Man(b1-4)GlcNAc(b1-4)[Fuc(a1-6)]GlcNAc
# Outline: as §1
# [19] = target: Gal(b1-4)GlcNAc(b1-2)[Gal(b1-4)GlcNAc(b1-6)]Man(a1-6)[GlcNAc(b1-4)][Gal(b1-4)GlcNAc(b1-2)Man(a1-3)]Man(b1-4)GlcNAc(b1-4)GlcNAc
# Outline: as §1
# [20] = target: Gal(b1-4)GlcNAc(b1-2)[Gal(b1-4)GlcNAc(b1-6)]Man(a1-6)[GlcNAc(b1-4)][Gal(b1-4)GlcNAc(b1-2)[Gal(b1-4)GlcNAc(b1-4)]Man(a1-3)]Man(b1-4)GlcNAc(b1-4)[Fuc(a1-6)]GlcNAc
# Outline: as §1
# [21] = target: Gal(b1-4)GlcNAc(b1-3)Gal(b1-3)GalNAc
# Outline: as §1
# [22] = target: Gal(b1-4)GlcNAc(b1-3)Gal(b1-3)GlcNAc
# Outline: as §1
# [23] = target: Gal(b1-4)GlcNAc(b1-3)Gal(b1-4)Glc
# Outline: as §1
# [24] = target: Gal(b1-4)GlcNAc(b1-3)Gal(b1-4)GlcNAc
# Outline: as §1
# [25] = target: Gal(b1-4)GlcNAc(b1-3)Gal(b1-4)GlcNAc(b1-2)Man(a1-3)[Gal(b1-4)GlcNAc(b1-3)Gal(b1-4)GlcNAc(b1-2)Man(a1-6)]Man(b1-4)GlcNAc(b1-4)GlcNAc
# Outline: as §1
# [26] = target: Gal(b1-4)GlcNAc(b1-3)Gal(b1-4)GlcNAc(b1-2)Man(a1-3)[Gal(b1-4)GlcNAc(b1-3)Gal(b1-4)GlcNAc(b1-2)Man(a1-6)]Man(b1-4)GlcNAc(b1-4)[Fuc(a1-6)]GlcNAc
# Outline: as §1
binder,measurement,setting,value
PX14343F-bfa-562-20-562 (Bacteroides fragilis) (protein) CDDFLDSFPQDTVTNENFWKSKEDADKVLVDIYASLLPKDAIFFDEAMSDNAYLVWDWWGGAQQVANGSYTTSGEIPTNRWNGSYEVIRKCWFLLEGIEKIEDISEQDKNKIIGETYFMLAYNYYVLTSYFGDVPLVTKTLAIPESKQLVRTPKAEVVDYAINKLKEAAVMLEGLSQEKGRVTADACRFLIARMYLYNGDYSNVLETVKLLEGKYQLYREGDTPYEDLFSGVAENSCEVILSVVCDKRVGEIYTSHGGNGIMLLKGITGEDPYRGVTPSGSLVDAYPMADGRLIHEAGSSYDPKKPYEGRDPRFYQSIVYPTGQIKYLDVETGTVKERLYDPEDPTTVPEHQYNYSQPSATGYMWNKYIDYSVYAMNSVWDCTNDIIVFRYADVLLMKAEALLQTKGESAKEEVCNLIDQLRDRCSCGRVHRENYNSKDELMELLKNERRIELANEGLRYMDLIRWKDAEKNTIVTGVGLTGQMYGAYMRKDGVGKDDKTVDVDNTPRRYIETRYFNASKGYLFPIPQKERDLNPNLTQNPNW,glycan array binding signal (z-score),Gal(b1-4)Glc,-0.415
same,glycan array binding signal (z-score),Gal(b1-4)Glc6S,0.438
same,glycan array binding signal (z-score),Gal(b1-4)GlcNAc,-0.413
same,glycan array binding signal (z-score),[1],-0.262
same,glycan array binding signal (z-score),Gal(b1-4)GlcNAc(b1-2)Man,0.844
same,glycan array binding signal (z-score),[2],-0.717
same,glycan array binding signal (z-score),[3],-0.901
same,glycan array binding signal (z-score),[4],-0.507
same,glycan array binding signal (z-score),[5],-0.394
same,glycan array binding signal (z-score),[6],-0.937
same,glycan array binding signal (z-score),[7],-0.321
same,glycan array binding signal (z-score),[8],-0.235
same,glycan array binding signal (z-score),[9],0.082
same,glycan array binding signal (z-score),[10],-0.546
same,glycan array binding signal (z-score),[11],0.317
same,glycan array binding signal (z-score),[12],0.332
same,glycan array binding signal (z-score),[13],-0.599
same,glycan array binding signal (z-score),[14],-0.168
same,glycan array binding signal (z-score),[15],0.08
same,glycan array binding signal (z-score),[16],0.047
same,glycan array binding signal (z-score),[17],0.143
same,glycan array binding signal (z-score),[18],-0.035
same,glycan array binding signal (z-score),[19],-0.358
same,glycan array binding signal (z-score),[20],0.127
same,glycan array binding signal (z-score),[21],0.076
same,glycan array binding signal (z-score),[22],0.748
same,glycan array binding signal (z-score),[23],0.924
same,glycan array binding signal (z-score),[24],-0.499
same,glycan array binding signal (z-score),[25],1.15
same,glycan array binding signal (z-score),[26],0.869

# A portion from the list above, for reference:
binder,measurement,setting,value
PX14343F-bfa-562-20-562 (Bacteroides fragilis) (protein) CDDFLDSFPQDTVTNENFWKSKEDADKVLVDIYASLLPKDAIFFDEAMSDNAYLVWDWWGGAQQVANGSYTTSGEIPTNRWNGSYEVIRKCWFLLEGIEKIEDISEQDKNKIIGETYFMLAYNYYVLTSYFGDVPLVTKTLAIPESKQLVRTPKAEVVDYAINKLKEAAVMLEGLSQEKGRVTADACRFLIARMYLYNGDYSNVLETVKLLEGKYQLYREGDTPYEDLFSGVAENSCEVILSVVCDKRVGEIYTSHGGNGIMLLKGITGEDPYRGVTPSGSLVDAYPMADGRLIHEAGSSYDPKKPYEGRDPRFYQSIVYPTGQIKYLDVETGTVKERLYDPEDPTTVPEHQYNYSQPSATGYMWNKYIDYSVYAMNSVWDCTNDIIVFRYADVLLMKAEALLQTKGESAKEEVCNLIDQLRDRCSCGRVHRENYNSKDELMELLKNERRIELANEGLRYMDLIRWKDAEKNTIVTGVGLTGQMYGAYMRKDGVGKDDKTVDVDNTPRRYIETRYFNASKGYLFPIPQKERDLNPNLTQNPNW,glycan array binding signal (z-score),[12],0.332
same,glycan array binding signal (z-score),[13],-0.599
